Test results taken from patent US20190282704A1.
These are yes or no findings as the source states them, for the method shown. Some results given as binding are weak or reduced against the parent protein; the word gives no strength.

Tests used:
Experiment in all cases: Biacore, peptide immobilised, ZTS-927 as analyte; KD in FIG. 13B, not given
Peptide ZTS-561 = target: T1, Peptide ZTS-561
T1 sequence (peptide, terminal cysteines constrained with the mT2a linker (CLIPS)): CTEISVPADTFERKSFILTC

Peptide ZTS-562 = target: T2, Peptide ZTS-562
T2 sequence (peptide, constrained through the terminal cysteines; linker only shown in FIG. 13A): CEISVPADTFERKSFC

Peptide ZTS-563 = target: T3, Peptide ZTS-563
T3 sequence (peptide, terminal cysteines constrained with the mT2a linker (CLIPS)): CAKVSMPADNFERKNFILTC

Peptide ZTS-564 = target: T4, Peptide ZTS-564
T4 sequence (peptide, terminal cysteines constrained with the mT2b linker (CLIPS)): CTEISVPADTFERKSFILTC

Measured: binding

B1: ZTS-927 (antibody)
heavy: QVLLVQSGAEVRTPGASVKIFCKASGYSFTSYTIHWLRQAPAQGLEWMGNINPTSGYTENNQRFKDRLTLTADTSTNTAYMELSSLRSADTAMYYCARWGFKYDGEWSFDVWGAGTTVTVSSASTTAPSVFPLAPSCGTTSGATVALACLVLGYFPEPVTVSWNSGALTSGVHTFPAVLQASGLYSLSSMVTVPSSRWLSDTFTCNVAHPPSNTKVDKTVRKTDHPPGPKPCDCPKCPPPEMLGGPSIFIFPPKPKDTLSISRTPEVTCLVVDLGPDDSDVQITWFVDNTQVYTAKTSPREEQFNSTYRVVSVLPILHQDWLKGKEFKCKVNSKSLPSPIERTISKAKGQPHEPQVYVLPPAQEELSRNKVSVTCLIKSFHPPDIAVEWEITGQPEPENNYRTTPPQLDSDGTYFVYSKLSVDRSHWQRGNTYTCSVSHEALHSHHTQKSLTQSPGK
light: EIQMTQSPSSLSASPGDRVTITCRASQGISIWLSWYQQKPGNIPKVLINKASNLHIGVPSRFSGSGSGTDFTLTISSLEPEDAATYYCLQSQTYPLTFGGGTKLEIKRSDAQPSVFLFQPSLDELHTGSASIVCILNDFYPKEVNVKWKVDGVVQNKGIQESTTEQNSKDSTYSLSSTLTMSSTEYQSHEKFSCEVTHKSLASTLVKSFQRSECQRE
binds: all assays above
